Experimental data reported in US6620911B1, “Anti-cryptococcal peptides” (Arizona Board of Regents, acting for and on behalf of …, priority 1998, dated 2003).
At least one read-out could not be matched to a standard name with certainty.

System: six human cancer cell lines (pancreas BXPC-3, neuroblastoma SK-N-SH, thyroid SW1736, non-small cell lung NCI-H460, pharynx FADU, prostate DU-145)
Test: GI50 of acid-treated dolastatin 10 for six human cancer cell lines
Assay type: cell-based
Conditions: broth macrodilution conditions, data not shown

For `CC[C@H](C)[C@@H]([C@@H](CC(=O)N1CCC[C@H]1[C@H](OC)[C@@H](C)C(=O)N[C@@H](Cc1ccccc1)c1nccs1)OC)N(C)C(=O)[C@@H](NC(=O)[C@H](C(C)C)N(C)C)C(C)C` [1a, dolastatin 10], the “antiproliferative activity (GI50) after incubation at pH 5, pH 6 and pH 7” value was “no apparent loss of antiproliferative activity”.
